At least one compound was matched to its structure with a doubt left.
Biological target: T1, F508del CFTR (Homo sapiens, UniProt P13569, DEL508-508)
T1 construct: expressed in transfected cells; host or cells: HEK293 Griptite cells stably expressing F508del CFTR, transiently transfected with halide-sensitive eYFP
Test: YFP fluorescence quenching functional assay (iodide influx), HEK293 cells with F508del CFTR and halide sensitive YFP
Format: cell-based
Conditions: for Bart's scores: Functional assay, Prestwick compounds, positive tests / tests
Experimental: In addition to the MDS compounds, the 1120 Prestwick Library compounds were screened. (See FIGS. 7 to 12.) Of the compounds, one qualified as a “strong” hit, 3 as “medium” hits and 57 as “weak” hits. The Z score for the assay was 0.62. The top 50 hits were further tested in a counter screen in which the halide sensitive fluorescent compound (YFP) was expressed inside cells (Table 2). After incubation with the test compounds the ability of the cells to uptake iodide was measure by decreasing YFP fluorescence. In these cells this can only occur if functional CFTR is present at the cell surface (FIG. 7). The hits were also tested for the appearance of the Band C form of CFTR. […] The functionality of the compounds was further studied by the use of Iodide efflux assays for each compound in both BHK and the more physiologically relevant CFBE cells. […] FIG. 10 is a table of results for the 15 hit compounds which summarizes many experiments. […] The results for the best 15 compounds from the Prestwick Library, or “Prestwick 15”, are shown FIGS. 8, 9 and 10.
Strongly adhesive Human […] Kidney cells stably expressing both the human macrophage scavenger receptor (HEK293 Griptite, Invitrogen) and F508del CFTR were plated in 96-well plates and transiently transfected with pcDNA3 plasmid encoding a halide sensitive variant of eYFP. After 24-48 h later cells were exposed to 10 μM test compound in triplicate and incubated for an additional 24 h. Cells were stimulated for 20 minutes with a in a buffer containing 25 μM forskolin, 45 μM IBMX and 50 μM genistein final concentration. The high content screening assay was performed using a Cellomics platform. Iodide was added robotically to a final concentration of 50 mM and the resulting decrease in fluorescence was measured. Images were taken at time 0 and stored for subsequent use when calculating a mask so that only those cells that express YFP at time 0 are measured. The quenching was detected in 15 images taken over the course of an experiment lasting 40 seconds. […]

Chains of the proteins cited; added tags and fusions are not shown. A line that says so, or that is headed by a name, gives the form on record, which may keep a tag or linker.
UniProt P13569, with tags, fused parts or gaps DEL508-508: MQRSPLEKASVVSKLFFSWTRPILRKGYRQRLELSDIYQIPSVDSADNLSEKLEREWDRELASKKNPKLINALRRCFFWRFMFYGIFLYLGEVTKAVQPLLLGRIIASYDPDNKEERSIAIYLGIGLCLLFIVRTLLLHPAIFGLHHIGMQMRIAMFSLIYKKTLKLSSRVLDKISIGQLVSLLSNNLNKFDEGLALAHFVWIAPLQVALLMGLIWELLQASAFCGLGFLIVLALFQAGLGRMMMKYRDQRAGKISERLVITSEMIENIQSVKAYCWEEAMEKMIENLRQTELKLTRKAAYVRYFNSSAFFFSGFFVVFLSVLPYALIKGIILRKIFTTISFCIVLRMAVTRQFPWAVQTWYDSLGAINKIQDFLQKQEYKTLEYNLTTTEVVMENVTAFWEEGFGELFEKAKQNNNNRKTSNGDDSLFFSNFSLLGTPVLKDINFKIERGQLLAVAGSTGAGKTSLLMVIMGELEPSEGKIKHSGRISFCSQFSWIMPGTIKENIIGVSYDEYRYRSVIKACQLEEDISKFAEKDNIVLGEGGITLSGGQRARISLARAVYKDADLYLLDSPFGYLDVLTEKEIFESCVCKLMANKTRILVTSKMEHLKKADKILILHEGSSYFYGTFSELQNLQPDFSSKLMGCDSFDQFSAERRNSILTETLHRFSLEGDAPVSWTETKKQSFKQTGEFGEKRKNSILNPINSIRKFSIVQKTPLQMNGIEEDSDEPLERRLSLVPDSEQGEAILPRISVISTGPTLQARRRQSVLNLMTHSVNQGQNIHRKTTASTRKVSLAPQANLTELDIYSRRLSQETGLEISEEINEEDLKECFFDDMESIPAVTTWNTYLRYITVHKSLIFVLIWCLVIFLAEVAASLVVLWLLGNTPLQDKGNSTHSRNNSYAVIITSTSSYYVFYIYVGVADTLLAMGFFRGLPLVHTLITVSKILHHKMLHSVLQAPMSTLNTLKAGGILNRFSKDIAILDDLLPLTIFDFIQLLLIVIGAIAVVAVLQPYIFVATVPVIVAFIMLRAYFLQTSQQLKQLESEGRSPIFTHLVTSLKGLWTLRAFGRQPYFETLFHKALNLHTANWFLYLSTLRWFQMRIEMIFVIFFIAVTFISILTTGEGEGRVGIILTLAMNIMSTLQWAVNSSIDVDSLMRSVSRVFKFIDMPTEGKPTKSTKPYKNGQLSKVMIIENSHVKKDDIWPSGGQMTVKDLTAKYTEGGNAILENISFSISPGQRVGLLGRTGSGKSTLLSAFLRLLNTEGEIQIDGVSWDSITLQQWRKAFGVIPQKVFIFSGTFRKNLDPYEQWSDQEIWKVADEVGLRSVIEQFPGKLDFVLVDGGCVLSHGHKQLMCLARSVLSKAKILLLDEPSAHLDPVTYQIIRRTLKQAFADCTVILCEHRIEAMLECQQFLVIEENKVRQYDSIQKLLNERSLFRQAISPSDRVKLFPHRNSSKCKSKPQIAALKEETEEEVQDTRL

c1ccc(CNc2ncnc3[nH]cnc23)cc1 [Aminopurine, 6-benzyl]
mark printed beside the % YFP quench value (+ or ?) (10 μM, 24 h, key not given, 15 hits positive in the functional assay): 3-
Bart's scores: 2./3

NC(=O)N/N=C/c1ccc([N+](=O)[O-])o1 [Nitrofural]
Bart's scores: 0./3
